Measured values published in PubChem BioAssay AID1487 (National Center for Advancing Translational Sciences (NCATS), 2009).
Some of the results follow. The main result of the screen is listed elsewhere. These columns were measured beside it and carry no call. Most of these compounds were active or inconclusive in the main read-out, so they are no random draw. Words in brackets tell the shape of the fitted curve; partial curves, single points and poor fits give uncertain potencies.

Test: qHTS Assay for Modulators of Lamin A Splicing
Details: HeLa LMNA splicing GFP/RFP minigene ratio, 48 h
Summary of the method: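 S3 HeLa cells stably expressing lamin A-EGFP splicing minigene plus DsRed2, 600 cells/well, 48 h compound exposure at 37C. Laser-scanning cytometry; analysed as GFP (500-530 nm)/RFP (575-640 nm) total intensity ratio; 0.5% DMSO vehicle.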

[1] = measured here: GFP splicing reporter channel
[2] = measured here: RFP viability control channel

**Q.** With Cc1cccc(S(=O)(=O)Nc2ccc(C)c3c2OC(C)(C)C3)c1 as the compound, how does the AC50 [1] read?
**A.** 22.4 µM [rising, single point]

**Q.** And the AC50 [2]?
**A.** 22.4 µM [rising, single point]

**Q.** With COc1ccc(-c2nnc(NC(=O)c3cc(Cl)ccc3Cl)o2)cc1 as the compound, how does the AC50 [2] read?
**A.** 5.01 µM [rising, partial curve, poor fit]

**Q.** With Cc1nn(C)c2c1c(-c1ccccc1)cc(=O)n2Cc1c(F)cccc1Cl as the compound, how does the AC50 [2] read?
**A.** 35.5 µM [rising, single point]

**Q.** Which AC50 [1] does the source give for Cc1cc(=O)oc2cc(OCC(=O)OCC(=O)N(CCC#N)c3ccccc3)ccc12 here?
**A.** 3.16 µM [rising, partial curve]

**Q.** Which AC50 [2] does the source give for COc1cc(C(=O)Nc2ccc(N(C)C)cc2)cc(OC)c1OC here?
**A.** 35.5 µM [rising, single point]

**Q.** Which AC50 [1] does the source give for COc1ccccc1N(Cc1ccccc1)S(=O)(=O)c1cccc(C(=O)Nc2ccc(C(C)=O)cc2)c1 here?
**A.** 0.355 µM [rising, full curve, poor fit]

**Q.** For O=C(COc1ccc(S(=O)(=O)N2CCCC2)cc1Cl)N1CCN(c2ccccc2)CC1, which AC50 [2] is on record?
**A.** 31.6 µM [rising, single point]

**Q.** For COc1ccc(CCN2C(=O)c3cccc4c(C(=O)N5CCCCC5)ccc(c34)C2=O)cc1OC, which AC50 [2] is on record?
**A.** 0.00891 µM [rising, full curve, poor fit]

**Q.** What does the source list for COc1ccc(/C=C\C(=O)c2c(O)ccc3c(C)cc(=O)oc23)cc1OC?
**A.** AC50 [1]: 22.4 µM [falling, single point]; AC50 [2]: 35.5 µM [falling, single point]

**Q.** For CCOC(=O)c1ccc(-c2cc(C)no2)[nH]1, which AC50 [2] is on record?
**A.** 0.00631 µM [falling, full curve, poor fit]

**Q.** With O=C1CC(c2ccccc2Cl)CC(O)=C1C=Nc1ccccc1 (stereo not given) as the compound, how does the AC50 [1] read?
**A.** 10 µM [rising, partial curve]

**Q.** What about the AC50 [2] of the same compound?
**A.** 11.2 µM [rising, partial curve]

**Q.** With COc1ccccc1Cn1c(=O)c2ccccc2n2c(Sc3ncnc4sccc34)nnc12 as the compound, how does the AC50 [1] read?
**A.** 5.01 µM [falling, partial curve]

**Q.** And the AC50 [2]?
**A.** 3.55 µM [falling, partial curve]

**Q.** With Cc1cccc(/C(N)=N/OC(=O)C23CC4CC(CC(C4)C2)C3)c1 as the compound, how does the AC50 [2] read?
**A.** 0.0251 µM [falling, full curve, poor fit]

**Q.** Which AC50 [2] does the source give for COc1ccc(-c2nc(CSCC(=O)N3CCN(c4cccc(C)c4)C(C)C3)c(C)o2)cc1OC (stereo not given) here?
**A.** 17.8 µM [rising, single point]

**Q.** For CCOC(=O)CNC(c1ccccc1)c1cc(Br)ccc1NC(=O)OCC (stereo not given), which AC50 [1] is on record?
**A.** 35.5 µM [rising, single point]

**Q.** With C/C(=N\NC(=S)NCc1ccccc1)c1ccccc1F as the compound, how does the AC50 [2] read?
**A.** 14.1 µM [falling, single point]

**Q.** Which AC50 [1] does the source give for Cc1cccc(NC(=O)c2ccc(CN3CCN(Cc4ccccc4)CC3)cc2)c1 here?
**A.** 0.631 µM [falling, full curve]

**Q.** With CCOc1cccc(CC(=O)N2CCc3c([nH]c4ccccc34)C2c2ccc(OC)cc2)c1OCC (stereo not given) as the compound, how does the AC50 [2] read?
**A.** 10 µM [rising, partial curve]

**Q.** Which AC50 [1] does the source give for COc1ccc(C)cc1S(=O)(=O)N(CC(=O)Nc1cccc([N+](=O)[O-])c1)c1ccc(C)cc1 here?
**A.** 0.00501 µM [falling, full curve, poor fit]

**Q.** And the AC50 [2]?
**A.** 0.00501 µM [falling, full curve, poor fit]

**Q.** Which AC50 [2] does the source give for Cc1ccccc1NC1=NS(=O)(=O)c2ccccc21 here?
**A.** 3.98 µM [falling, partial curve]

**Q.** For Cc1ccc(S(=O)(=O)Oc2ccc(/C=C(/NC(=O)c3ccccc3)C(=O)O)cc2)cc1, which AC50 [2] is on record?
**A.** 10 µM [rising, partial curve]

**Q.** Which AC50 [2] does the source give for COc1ccc(-c2c(C)nn3c(C(F)(F)F)cc(C)nc23)cc1OC here?
**A.** 0.794 µM [falling, partial curve, poor fit]

**Q.** With CCCOc1cc(C)c(S(=O)(=O)n2ccc(C)n2)cc1C as the compound, how does the AC50 [1] read?
**A.** 2.24 µM [rising, full curve, poor fit]

**Q.** What about the AC50 [2] of the same compound?
**A.** 14.1 µM [rising, partial curve]

**Q.** Which AC50 [1] does the source give for CC(NC(=O)c1ccc([N+](=O)[O-])cc1[N+](=O)[O-])c1ccc(-c2ccccc2)cc1 (stereo not given) here?
**A.** 17.8 µM [rising, single point]

**Q.** What about the AC50 [2] of the same compound?
**A.** 15.8 µM [rising, single point]

**Q.** For CC(=O)Oc1ccc(N(C(C)=O)S(=O)(=O)c2cccs2)c2ccccc12, which AC50 [2] is on record?
**A.** 5.62 µM [falling, single point]

**Q.** With COc1ccc(C(=O)NCC(c2cccnc2)N2CCN(c3ccccc3F)CC2)cc1OC (stereo not given) as the compound, how does the AC50 [2] read?
**A.** 0.398 µM [falling, full curve, poor fit]

**Q.** For CCOc1ccc(C(c2c(NC(=O)c3ccccc3)sc(C)c2C)N2CCN(CCO)CC2)cc1 (stereo not given), which AC50 [1] is on record?
**A.** 22.4 µM [falling, single point]

**Q.** What about the AC50 [2] of the same compound?
**A.** 28.2 µM [falling, single point]
